Measured values reported in US7179824B2, “Arthropodicidal anthranilamides” (E. I. du Pont de Nemours and Company, priority 2001, dated 2007).
Some entries share one result that the patent states for a list of compounds.

How the values were obtained:
Format in all cases: in vivo
[1] = system: beet armyworm (Spodoptera exigua); assay: Test D: control of beet armyworm on corn plant, foliar spray; conditions: sprayed at 50 ppm; corn plant with 10–15 1-day-old larvae; visually rated as in Test A
[2] = system: diamondback moth (Plutella xylostella); assay: Test A: control of diamondback moth on radish plant, foliar spray; conditions: sprayed at 250 ppm; radish plant with 10–15 neonate larvae; held 6 days at 25° C., 70% relative humidity; visually assessed
[3] = system: tobacco budworm (Heliothis virescens); assay: Test C: control of tobacco budworm on cotton plant, foliar spray; conditions: sprayed at 50 ppm; cotton plant with 8 2-day-old larvae; visually rated as in Test A
[4] = system: fall armyworm (Spodoptera frugiperda); assay: Test B: control of fall armyworm on corn (maize) plant, foliar spray; conditions: sprayed at 250 ppm; corn (maize) plant with 10–15 1-day-old larvae; visually rated as in Test A

Measured: feeding damage (excellent levels of plant protection)

Cc1cccc(C(=O)NC(C)C)c1N(C(=O)c1cc(C(F)(F)F)[nH]n1)c1ncccc1Cl [Compound 1, N-(3-chloro-2-pyridinyl)-N-[2-methyl-6-[[(1-methylethyl)amino]carbonyl]phenyl]-5-(trifluoromethyl)-1H-pyrazole-3-carboxamide]
≤ 10%: all assays above

Cc1cc(Cl)cc(C(=O)NC(C)C)c1N(C(=O)c1cc(C(F)(F)F)n[nH]1)c1ncccc1Cl [Compound 4, N-[4-chloro-2-methyl-6-[[(1-methylethyl)amino]carbonyl]phenyl]-N-(3-chloro-2-pyridinyl)-3-(trifluoromethyl)-1H-pyrazole-5-carboxamide]
≤ 10%: all assays above
